Source: PMC9008841
No constants are given. Whether binding was seen depends on the method and setting. For some assays here: In cells and extracts the contact can be indirect. Some entries that bind do so weakly or less than the wild type. For some assays here: Tags and fused reporters may be left off the sequences shown. One block for each molecule: values may come before it.

Legend:
Cdk8-3HA (S. cerevisiae) = molecular target: T1, Cdk8-3HA (S. cerevisiae) (UniProt P39073); test: co-IP; whole cell lysates of wild type yeast harboring Rim15-MYC and Cdk8-3HA; 1 mg soluble protein immunoprecipitated with anti-Myc or anti-HA antibodies, Protein G beads; before and after 200 ng/ml rapamycin (interaction decreased after rapamycin)
T1 sequence: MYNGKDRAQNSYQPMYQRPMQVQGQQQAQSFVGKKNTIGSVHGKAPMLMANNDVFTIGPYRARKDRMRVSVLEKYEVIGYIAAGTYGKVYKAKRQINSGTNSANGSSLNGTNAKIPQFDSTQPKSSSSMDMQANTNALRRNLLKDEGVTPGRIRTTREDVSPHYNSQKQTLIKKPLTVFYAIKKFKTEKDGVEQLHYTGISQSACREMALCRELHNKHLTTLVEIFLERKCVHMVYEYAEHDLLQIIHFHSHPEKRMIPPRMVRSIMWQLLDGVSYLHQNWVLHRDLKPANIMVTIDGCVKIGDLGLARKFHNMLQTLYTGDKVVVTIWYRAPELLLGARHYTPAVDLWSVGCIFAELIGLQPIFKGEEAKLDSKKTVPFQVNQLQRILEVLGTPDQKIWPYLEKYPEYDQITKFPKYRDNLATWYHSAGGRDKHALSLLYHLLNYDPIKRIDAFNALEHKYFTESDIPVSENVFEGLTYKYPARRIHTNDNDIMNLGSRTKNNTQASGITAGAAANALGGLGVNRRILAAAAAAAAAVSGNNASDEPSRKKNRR

[1] = molecular target: T2, Gal4-BD-Cdk8 (S. cerevisiae) (UniProt P39073); test: two-hybrid; Y2H Gold cells harboring Gal4-BD-Cdk8 and Gal4-AD-Rim15 subclones; read-out induction of the ADE2 and HIS3 reporter genes
T2 sequence: T1 sequence

- binding (Cdk8-3HA (S. cerevisiae)): binds
Molecule: Rim15-MYC (from UniProt P43565 1-1770)

- binding [1]: binds
B1: Gal4-AD-Rim15 PAS domain (amino acids 1-121) (domain or fragment, UniProt P43565 1-121)
chain: MFNRSNTAGGSQAMKEGLGINKLSPISSNSNPSSLTSSNYEKYLQLATEKNPCMILELELDGKVRYGSPQWNTITGVADDSGSSPTYIADLILGSDQDKGVFQKATDMLLMNDDTSCTITF
